# Measurements: EP4692122A1, “HUMANIZED ANTIBODIES TARGETING EPHA10” (priority 2023, dated 2024)
# Protein sequences, listed by entry. Tags and fused reporters are not part of them. Residues count along the entry.
# UniProt Q5JZY3, residues 34-565: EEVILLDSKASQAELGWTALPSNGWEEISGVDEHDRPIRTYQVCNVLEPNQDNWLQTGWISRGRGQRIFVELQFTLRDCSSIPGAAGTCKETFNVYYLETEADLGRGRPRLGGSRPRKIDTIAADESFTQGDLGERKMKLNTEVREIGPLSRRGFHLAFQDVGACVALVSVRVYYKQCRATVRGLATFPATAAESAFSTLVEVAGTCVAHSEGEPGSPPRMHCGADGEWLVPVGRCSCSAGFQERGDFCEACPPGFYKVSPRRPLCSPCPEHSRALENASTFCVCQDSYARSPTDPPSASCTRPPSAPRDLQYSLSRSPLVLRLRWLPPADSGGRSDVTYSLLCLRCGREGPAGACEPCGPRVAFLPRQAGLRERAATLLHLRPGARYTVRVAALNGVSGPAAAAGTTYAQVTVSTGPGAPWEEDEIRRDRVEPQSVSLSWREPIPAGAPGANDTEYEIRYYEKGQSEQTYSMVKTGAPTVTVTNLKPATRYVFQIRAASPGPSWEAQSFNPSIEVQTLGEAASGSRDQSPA
# Changes are numbered by the printed parent chain. These are yes or no findings as the source states them, for the method shown. Some results given as binding are weak or reduced against the parent protein; the word gives no strength.
# B1: antibody 1-1-A (antibody, V domains shown)
# VH: QVTLKESGPTLVKPTQTLTLTCTFSGFSLSTSGMGVGWIRQPPGKALEWLAHIWWDDVKRYNPALKSRLTITKDTSKNQVVLTMTNMDPVDTATYYCARTSFPAGVDYWGQGTLVTVSS
# VL: DVVMTQSPLSLPVTLGQPASISCRSSQSLQNSNGNTALNWFQQRPGQSPRRLIYRVSNRFSGVPDRFSGSGSGTDFTLKISRVEAEDVGVYYCLQVTHVPFTFGQGTKLEIKR
# B2: antibody 1-2-A (antibody, V domains shown)
# VH: B1 VH
# VL: B1 VL with V2I, S7T, P12S, L15P, F41Y, Q42L, R44K, R50Q, R51L
# B3: EphA10-specific humanized antibody 1-1 (antibody, V domains shown)
# VH: B1 VH
# VL: B1 VL with A37C
# notes: Expressed in Expi293F cells in IgG form; detected with anti-human kappa chain; also called IMGT 1-1
# B4: EphA10-specific humanized antibody 1-2 (antibody, V domains shown)
# VH: B1 VH
# VL: B1 VL with V2I, S7T, P12S, L15P, A37C, F41Y, Q42L, R44K, R50Q, R51L
# notes: Expressed in Expi293F cells in IgG form; detected with anti-human kappa chain; also called IMGT 1-2
# B5: antibody 1-N (antibody, V domains shown)
# VH: B1 VH
# VL: B1 VL with A37N
# B6: antibody 2.1 (antibody, V domains shown)
# VH: B1 VH with L18I
# VL: DIAMTQTPMSLSVTPGQPASISCRSSQSLQNSNGNTNLNWYLQKPGQSPQLLIYRVSNRFSGVPDRFSGSGSGTDFTLKISRVEAEDVGVYYCLQVTHVPFTFGQGTKLEIKR
# B7: antibody B.3 (antibody, V domains shown)
# VH: B1 VH with G33S, W54R
# VL: B1 VL with A37C, S48N, G71D, F76Y
# B8: antibody 2-Y (antibody, V domains shown)
# VH: B1 VH
# VL: B6 VL with A3V, M9L, N37Y
# B9: antibody 1-R (antibody, V domains shown)
# VH: B1 VH
# VL: B1 VL with A37R
# B10: antibody 1-W (antibody, V domains shown)
# VH: B1 VH
# VL: B1 VL with A37W
# B11: antibody A.7 (antibody, V domains shown)
# VH: B1 VH
# VL: B1 VL with A37Y, V96G
# notes: also called A7 antibody
# B12: antibody A.8 (antibody, V domains shown)
# VH: B1 VH
# VL: B1 VL with D1A, A37Y, V96G
# B13: antibody 2.3 (antibody, V domains shown)
# VH: B1 VH
# VL: B6 VL with A3V, M9L, N37R, V96E
# B14: antibody 2-R (antibody, V domains shown)
# VH: B1 VH
# VL: B6 VL with A3V, M9L, N37R
# B15: antibody A.3 (antibody, V domains shown)
# VH: B1 VH with S32R, W54R
# VL: B1 VL with A37C, N58S
# B16: antibody 1-Y (antibody, V domains shown)
# VH: B1 VH
# VL: B1 VL with A37Y
# B17: antibody 2-N (antibody, V domains shown)
# VH: B1 VH
# VL: B6 VL with A3V, M9L
# B18: antibody 2-W (antibody, V domains shown)
# VH: B1 VH
# VL: B6 VL with A3V, M9L, N37W
# notes: 1-2 with the free light chain CDR cysteine replaced by tryptophan; IgG form; also called 2W antibody; W2
# Target: EphA10 (ELISA antigen, construct not stated) (UniProt Q5JZY3)
# Experiment: ELISA
row,binding,Binder
1,binds,B1
2,binds,B2

# Target: EphA10 fused with human Fc (human) (UniProt Q5JZY3)
# Experiment: ELISA, EphA10-Fc coated, anti-human kappa HRP
row,binding,Binder
1,binds,B3
2,binds,B4

# Target: EphA10 (ELISA antigen, construct not stated) (UniProt Q5JZY3)
# Experiment: ELISA, IgG form
row,binding,Binder
1,binds,B5
2,binds,B6
3,binds,B7
4,binds,B8
5,binds,B9
6,binds,B10
7,binds,B11
8,binds,B12
9,binds,B13
10,binds,B14
11,binds,B15
12,binds,B16
13,binds,B17
14,binds,B18

# Target: EphA10-His monomer antigen protein (human) (UniProt Q5JZY3)
# Experiment: BLI (Octet R8), antibody on Protein A biosensor, EphA10-His monomer as analyte
row,binding,Binder
1,binds,B11
2,binds,B18
